Experimental data taken from the supplement of paper PMC10849652.
The list shows a part of the results.

Protein sequences, listed by entry. Tags and fused reporters are not part of them. Lines headed by an entry give the natural chain unless they say otherwise; changes in a name come on top.
UniProt Q7L5Y1: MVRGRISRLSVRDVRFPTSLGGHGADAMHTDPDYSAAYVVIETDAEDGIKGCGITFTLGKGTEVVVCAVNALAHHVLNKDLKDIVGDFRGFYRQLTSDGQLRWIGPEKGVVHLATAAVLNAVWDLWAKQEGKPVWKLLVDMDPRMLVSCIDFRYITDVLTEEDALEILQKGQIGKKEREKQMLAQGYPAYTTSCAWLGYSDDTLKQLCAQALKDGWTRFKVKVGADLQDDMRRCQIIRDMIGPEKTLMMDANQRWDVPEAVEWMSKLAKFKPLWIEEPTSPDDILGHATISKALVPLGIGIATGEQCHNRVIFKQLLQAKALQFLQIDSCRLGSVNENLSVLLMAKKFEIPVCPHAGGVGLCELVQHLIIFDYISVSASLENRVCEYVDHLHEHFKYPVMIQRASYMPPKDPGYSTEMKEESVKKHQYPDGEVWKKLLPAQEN
UniProt O94919: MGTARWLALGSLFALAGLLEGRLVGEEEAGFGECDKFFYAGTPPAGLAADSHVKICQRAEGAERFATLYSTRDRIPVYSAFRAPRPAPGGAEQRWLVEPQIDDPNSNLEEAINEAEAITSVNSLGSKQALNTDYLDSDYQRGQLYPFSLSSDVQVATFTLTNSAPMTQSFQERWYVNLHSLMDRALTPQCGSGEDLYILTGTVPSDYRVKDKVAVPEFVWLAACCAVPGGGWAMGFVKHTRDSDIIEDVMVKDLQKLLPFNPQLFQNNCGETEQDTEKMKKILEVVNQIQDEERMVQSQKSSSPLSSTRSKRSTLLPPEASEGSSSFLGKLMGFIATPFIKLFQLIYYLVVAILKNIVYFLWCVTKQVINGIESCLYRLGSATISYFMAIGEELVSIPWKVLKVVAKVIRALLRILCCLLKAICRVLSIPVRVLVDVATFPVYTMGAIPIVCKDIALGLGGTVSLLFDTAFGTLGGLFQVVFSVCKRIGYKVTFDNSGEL
UniProt Q32P44: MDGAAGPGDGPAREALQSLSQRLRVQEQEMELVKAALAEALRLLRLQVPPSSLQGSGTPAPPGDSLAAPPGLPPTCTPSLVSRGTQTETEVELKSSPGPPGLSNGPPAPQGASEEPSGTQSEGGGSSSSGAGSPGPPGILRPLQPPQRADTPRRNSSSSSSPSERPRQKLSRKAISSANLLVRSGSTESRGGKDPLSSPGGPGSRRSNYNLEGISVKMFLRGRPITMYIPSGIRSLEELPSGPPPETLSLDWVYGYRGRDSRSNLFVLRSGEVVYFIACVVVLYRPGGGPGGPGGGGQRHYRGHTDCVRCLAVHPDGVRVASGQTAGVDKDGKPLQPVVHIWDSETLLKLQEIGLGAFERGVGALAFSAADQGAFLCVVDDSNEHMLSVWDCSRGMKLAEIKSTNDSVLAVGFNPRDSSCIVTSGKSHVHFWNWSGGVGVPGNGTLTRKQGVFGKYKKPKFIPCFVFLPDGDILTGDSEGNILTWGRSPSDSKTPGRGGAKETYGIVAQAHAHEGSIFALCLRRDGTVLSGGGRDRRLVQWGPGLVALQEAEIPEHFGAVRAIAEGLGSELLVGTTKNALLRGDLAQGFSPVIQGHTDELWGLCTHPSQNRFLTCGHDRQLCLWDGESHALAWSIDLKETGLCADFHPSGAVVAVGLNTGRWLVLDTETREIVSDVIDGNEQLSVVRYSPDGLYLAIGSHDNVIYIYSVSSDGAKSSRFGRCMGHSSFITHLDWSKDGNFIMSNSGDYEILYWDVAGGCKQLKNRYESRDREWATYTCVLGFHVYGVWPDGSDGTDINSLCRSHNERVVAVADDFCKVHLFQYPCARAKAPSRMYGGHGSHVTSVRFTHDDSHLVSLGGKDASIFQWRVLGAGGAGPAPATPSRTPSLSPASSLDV
UniProt Q0PNE2: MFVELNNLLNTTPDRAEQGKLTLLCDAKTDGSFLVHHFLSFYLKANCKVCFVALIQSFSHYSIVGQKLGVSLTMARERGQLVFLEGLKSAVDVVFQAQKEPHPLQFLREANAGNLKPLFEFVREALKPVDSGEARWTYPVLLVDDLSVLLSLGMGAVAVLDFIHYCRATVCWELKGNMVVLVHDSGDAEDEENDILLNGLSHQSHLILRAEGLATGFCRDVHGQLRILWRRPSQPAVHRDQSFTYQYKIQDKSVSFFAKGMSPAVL
UniProt O60573: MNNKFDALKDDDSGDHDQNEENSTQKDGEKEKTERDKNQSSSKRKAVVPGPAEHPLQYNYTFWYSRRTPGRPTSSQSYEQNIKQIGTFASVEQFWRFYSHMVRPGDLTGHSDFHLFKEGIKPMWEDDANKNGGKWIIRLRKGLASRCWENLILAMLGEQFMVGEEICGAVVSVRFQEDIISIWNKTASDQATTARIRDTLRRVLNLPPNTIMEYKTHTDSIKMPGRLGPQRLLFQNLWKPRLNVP
UniProt Q15723: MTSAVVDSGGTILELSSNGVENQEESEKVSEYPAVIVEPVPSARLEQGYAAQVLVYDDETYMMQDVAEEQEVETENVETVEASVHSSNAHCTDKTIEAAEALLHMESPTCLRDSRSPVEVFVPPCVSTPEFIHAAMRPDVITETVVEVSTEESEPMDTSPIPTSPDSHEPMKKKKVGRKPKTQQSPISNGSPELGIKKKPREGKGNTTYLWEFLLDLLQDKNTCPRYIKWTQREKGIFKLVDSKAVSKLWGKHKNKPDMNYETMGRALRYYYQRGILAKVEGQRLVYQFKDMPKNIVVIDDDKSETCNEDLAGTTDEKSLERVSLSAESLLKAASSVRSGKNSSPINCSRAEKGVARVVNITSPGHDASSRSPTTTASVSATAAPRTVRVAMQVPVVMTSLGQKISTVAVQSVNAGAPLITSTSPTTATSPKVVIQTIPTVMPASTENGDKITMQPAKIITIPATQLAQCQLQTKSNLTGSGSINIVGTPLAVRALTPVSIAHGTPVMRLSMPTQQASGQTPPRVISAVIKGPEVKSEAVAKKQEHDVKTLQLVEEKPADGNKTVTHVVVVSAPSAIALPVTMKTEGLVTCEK
UniProt P60842, whole entry, looked up: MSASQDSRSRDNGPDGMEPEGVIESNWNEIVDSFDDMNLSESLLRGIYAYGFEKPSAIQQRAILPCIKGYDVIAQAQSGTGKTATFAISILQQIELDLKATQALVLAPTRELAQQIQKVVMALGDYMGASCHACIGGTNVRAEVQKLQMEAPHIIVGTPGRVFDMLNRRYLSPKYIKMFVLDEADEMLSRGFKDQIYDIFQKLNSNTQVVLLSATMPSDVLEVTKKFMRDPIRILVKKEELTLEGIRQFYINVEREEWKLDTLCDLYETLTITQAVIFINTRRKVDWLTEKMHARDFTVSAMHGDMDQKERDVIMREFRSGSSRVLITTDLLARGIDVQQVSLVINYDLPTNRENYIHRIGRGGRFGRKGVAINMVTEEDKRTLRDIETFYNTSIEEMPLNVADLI
UniProt Q14232, whole entry, looked up: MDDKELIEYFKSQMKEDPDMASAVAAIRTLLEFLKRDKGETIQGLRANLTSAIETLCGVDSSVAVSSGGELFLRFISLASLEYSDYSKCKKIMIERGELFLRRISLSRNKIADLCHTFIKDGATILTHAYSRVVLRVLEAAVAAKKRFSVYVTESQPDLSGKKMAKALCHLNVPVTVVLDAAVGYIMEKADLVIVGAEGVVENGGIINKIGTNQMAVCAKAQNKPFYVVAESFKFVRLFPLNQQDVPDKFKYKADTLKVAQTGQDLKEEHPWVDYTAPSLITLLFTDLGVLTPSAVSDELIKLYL
UniProt P55010, whole entry, looked up: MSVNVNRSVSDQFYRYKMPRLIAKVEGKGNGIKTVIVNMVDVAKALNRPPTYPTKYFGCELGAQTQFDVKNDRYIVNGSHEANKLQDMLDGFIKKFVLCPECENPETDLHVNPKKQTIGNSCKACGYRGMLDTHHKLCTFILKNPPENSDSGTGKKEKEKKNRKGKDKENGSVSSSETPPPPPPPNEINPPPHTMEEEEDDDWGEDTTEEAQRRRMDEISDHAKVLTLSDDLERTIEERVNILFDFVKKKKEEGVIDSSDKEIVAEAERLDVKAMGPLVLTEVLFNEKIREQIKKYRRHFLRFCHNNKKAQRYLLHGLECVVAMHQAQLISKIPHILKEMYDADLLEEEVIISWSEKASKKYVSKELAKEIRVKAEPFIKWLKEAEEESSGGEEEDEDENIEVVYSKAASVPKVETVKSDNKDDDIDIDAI
UniProt Q9BQ52: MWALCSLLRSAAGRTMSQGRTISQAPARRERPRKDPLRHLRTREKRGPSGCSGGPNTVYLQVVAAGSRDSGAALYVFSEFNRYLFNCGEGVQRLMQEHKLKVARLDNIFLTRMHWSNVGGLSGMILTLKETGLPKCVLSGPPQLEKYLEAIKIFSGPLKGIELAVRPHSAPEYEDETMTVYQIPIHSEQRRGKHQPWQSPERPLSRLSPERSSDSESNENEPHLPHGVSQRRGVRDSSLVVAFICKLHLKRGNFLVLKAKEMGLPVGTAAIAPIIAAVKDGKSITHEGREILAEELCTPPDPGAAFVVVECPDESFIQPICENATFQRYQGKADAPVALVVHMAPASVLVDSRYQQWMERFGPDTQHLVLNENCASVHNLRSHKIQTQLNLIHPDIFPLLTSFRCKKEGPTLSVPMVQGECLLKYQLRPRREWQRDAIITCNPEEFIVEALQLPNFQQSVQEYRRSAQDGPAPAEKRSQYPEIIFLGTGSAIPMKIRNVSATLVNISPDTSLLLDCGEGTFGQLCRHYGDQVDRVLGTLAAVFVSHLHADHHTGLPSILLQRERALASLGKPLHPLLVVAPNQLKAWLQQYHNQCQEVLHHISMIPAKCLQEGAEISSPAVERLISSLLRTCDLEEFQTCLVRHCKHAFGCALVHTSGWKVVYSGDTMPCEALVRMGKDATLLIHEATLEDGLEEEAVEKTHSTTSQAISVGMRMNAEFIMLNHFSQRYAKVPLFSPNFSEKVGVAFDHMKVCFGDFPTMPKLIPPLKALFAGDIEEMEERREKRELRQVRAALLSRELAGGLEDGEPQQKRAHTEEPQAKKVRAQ
UniProt Q15717, whole entry, looked up: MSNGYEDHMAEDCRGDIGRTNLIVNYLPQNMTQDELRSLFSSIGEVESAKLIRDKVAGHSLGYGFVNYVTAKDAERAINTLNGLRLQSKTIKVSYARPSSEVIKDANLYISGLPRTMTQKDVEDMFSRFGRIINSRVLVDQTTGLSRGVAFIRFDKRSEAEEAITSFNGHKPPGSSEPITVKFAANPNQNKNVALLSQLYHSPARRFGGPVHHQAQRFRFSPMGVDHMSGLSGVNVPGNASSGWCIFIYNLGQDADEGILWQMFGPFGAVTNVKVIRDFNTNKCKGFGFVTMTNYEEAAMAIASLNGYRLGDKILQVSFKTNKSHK
UniProt Q9Y262, whole entry, looked up: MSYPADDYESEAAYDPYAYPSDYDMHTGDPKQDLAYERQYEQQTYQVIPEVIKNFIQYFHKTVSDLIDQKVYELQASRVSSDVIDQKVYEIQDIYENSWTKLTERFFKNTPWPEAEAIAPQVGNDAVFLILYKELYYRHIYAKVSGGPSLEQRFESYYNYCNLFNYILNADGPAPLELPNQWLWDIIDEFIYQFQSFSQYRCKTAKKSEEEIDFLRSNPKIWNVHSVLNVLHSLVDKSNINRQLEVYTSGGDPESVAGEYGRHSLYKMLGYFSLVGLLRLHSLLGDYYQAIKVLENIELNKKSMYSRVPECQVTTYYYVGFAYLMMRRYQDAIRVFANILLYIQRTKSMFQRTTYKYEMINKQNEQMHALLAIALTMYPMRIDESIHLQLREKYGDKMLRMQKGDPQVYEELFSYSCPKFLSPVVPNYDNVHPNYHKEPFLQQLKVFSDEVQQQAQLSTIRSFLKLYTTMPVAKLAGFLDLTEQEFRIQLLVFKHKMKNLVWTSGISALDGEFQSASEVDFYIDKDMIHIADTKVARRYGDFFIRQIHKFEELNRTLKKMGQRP
UniProt O95208: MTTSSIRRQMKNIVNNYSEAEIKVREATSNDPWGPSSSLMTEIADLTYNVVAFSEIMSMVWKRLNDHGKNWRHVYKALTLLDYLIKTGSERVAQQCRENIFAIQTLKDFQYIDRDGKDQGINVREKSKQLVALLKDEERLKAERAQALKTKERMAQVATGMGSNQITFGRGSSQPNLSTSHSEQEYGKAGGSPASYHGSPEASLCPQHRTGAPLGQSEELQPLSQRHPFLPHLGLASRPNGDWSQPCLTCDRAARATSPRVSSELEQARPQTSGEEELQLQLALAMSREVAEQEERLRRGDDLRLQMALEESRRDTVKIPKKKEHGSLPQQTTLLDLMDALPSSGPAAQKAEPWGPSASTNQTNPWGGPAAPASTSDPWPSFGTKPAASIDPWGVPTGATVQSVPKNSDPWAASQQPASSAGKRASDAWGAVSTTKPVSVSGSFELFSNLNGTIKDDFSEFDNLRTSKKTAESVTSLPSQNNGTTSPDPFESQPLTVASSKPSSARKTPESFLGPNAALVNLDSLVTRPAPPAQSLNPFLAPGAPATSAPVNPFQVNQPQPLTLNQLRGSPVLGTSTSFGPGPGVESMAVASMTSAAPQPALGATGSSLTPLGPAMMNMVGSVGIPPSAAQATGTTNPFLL
UniProt O43768: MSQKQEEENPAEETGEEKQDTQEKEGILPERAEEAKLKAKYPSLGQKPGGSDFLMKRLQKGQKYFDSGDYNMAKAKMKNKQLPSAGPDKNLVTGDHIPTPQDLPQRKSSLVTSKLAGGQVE

Legend:
Test in all cases: log2 fold change, soluble protein after heating vs DMSO (PISA); higher = thermal stabilisation; K562 lysate, 10 uM; active = over 0.2 and 3.5 SD of the protein, either way, in both replicates (recomputed)
vemurafenib = compound: CCCS(=O)(=O)Nc1ccc(F)c(C(=O)c2c[nH]c3ncc(-c4ccc(Cl)cc4)cc23)c1F [vemurafenib]
Outline: (§1)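 Quantification was by TMTpro 16plex LC-MS/MS with equalised channel sums, applied to the supernatant after 21,000xg for 90 min. Samples were crude K562 extract at 1 mg/mL protein in PBS pH 7.4 with 1 mM MgCl2, treated with 10 μM compound for 30 min, heated for 3 min across 48°C-58°C, pooled and brought to 0.5% NP-40 at 4°C. Values are log-two fold changes in thermal stability relative to solvent controls, from duplicates.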

[1] = compound: CCCS(=O)(=O)Nc1ccc(F)c(C(=O)c2c[nH]c3ncc(Cl)cc23)c1F
Outline: as §1

barasertib = compound: CCN(CCCOc1ccc2c(Nc3cc(CC(=O)Nc4cccc(F)c4)[nH]n3)ncnc2c1)CCOP(=O)(O)O [barasertib]
Outline: as §1

[2] = compound: CC[C@@H]1C(=O)N(C)c2cnc(Nc3ccc(C(=O)NC4CCN(C)CC4)cc3OC)nc2N1C1CCCC1
Outline: as §1

volasertib = compound: CC[C@@H]1C(=O)N(C)c2cnc(Nc3ccc(C(=O)N[C@H]4CC[C@H](N5CCN(CC6CC6)CC5)CC4)cc3OC)nc2N1C(C)C [volasertib]
Outline: as §1

[3] = compound: CCn1c(C(=O)N(C2CC2)C2CC2)cc2c3c(ncn3C)c(Nc3cc(C)n(C)n3)nc21
Outline: as §1

[4] = compound: CCn1cc(-c2ccnc3[nH]c(-c4cccc(CN(C)C)c4)cc23)c(-c2ccc(NC(=O)N(C)C)cc2)n1
Outline: as §1

[5] = compound: CN1CCC(CNc2ccc3ncc(-c4cccc(OC(F)(F)F)c4)n3n2)CC1
Outline: as §1

saracatinib = compound: CN1CCN(CCOc2cc(OC3CCOCC3)c3c(Nc4c(Cl)ccc5c4OCO5)ncnc3c2)CC1 [saracatinib]
Outline: as §1

sotrastaurin = compound: CN1CCN(c2nc(C3=C(c4c[nH]c5ccccc45)C(=O)NC3=O)c3ccccc3n2)CC1 [sotrastaurin]
Outline: as §1

Measured: log2 fold change

ENOSF1 (UniProt Q7L5Y1)
inactive: vemurafenib 0.017 | [1] 0.001 | barasertib -0.003 | [2] 0.065 | volasertib -0.056 | [3] 0.007 | [4] -0.043 | [5] 0.005 | saracatinib 0.024 | sotrastaurin 0.011

ENGASE (UniProt Q8NFI3)
inactive: vemurafenib 0.034 | [1] 0.05 | barasertib 0.003 | [2] 0 | volasertib -0.035 | [3] -0.031 | [4] 0.028 | [5] 0.052 | saracatinib -0.019 | sotrastaurin -0.008

ENDOD1 (UniProt O94919)
inactive: vemurafenib 0.026 | [1] -0.024 | barasertib 0.192 | [2] -0.002 | volasertib 0.027 | [3] 0.004 | [4] 0.081 | [5] -0.03 | saracatinib -0.015 | sotrastaurin 0.075

EPB41, A0A2R8Y6D0
active: [5] 0.594
inactive: vemurafenib -0.019 | [1] -0.004 | barasertib 0.043 | [2] -0.108 | volasertib 0.006 | [3] -0.24 | [4] -0.047 | saracatinib -0.082 | sotrastaurin 0.044

ELF1 (UniProt P32519)
inactive: vemurafenib 0.022 | [1] 0.019 | barasertib 0.02 | [2] -0.019 | volasertib -0.043 | [3] -0.073 | [4] 0.071 | [5] -0.097 | saracatinib -0.015 | sotrastaurin 0.019

EML3 (UniProt Q32P44)
inactive: vemurafenib -0.068 | [1] 0.025 | barasertib 0.005 | [2] -0.017 | volasertib -0.035 | [3] -0.003 | [4] -0.016 | [5] -0.005 | saracatinib -0.009 | sotrastaurin -0.016

EIF3G (UniProt K7ER90)
inactive: vemurafenib 0.137 | [1] -0.02 | barasertib 0.284 | [2] 0 | volasertib -0.038 | [3] 0.112 | [4] -0.046 | [5] 0.177 | saracatinib 0.045 | sotrastaurin 0.008

EIPR1 (UniProt Q53HC9)
inactive: vemurafenib -0.003 | [1] -0.035 | barasertib 0.06 | [2] 0.006 | volasertib -0.007 | [3] 0.015 | [4] 0.101 | [5] 0.037 | saracatinib -0.054 | sotrastaurin 0.03

ELP6 (UniProt Q0PNE2)
inactive: vemurafenib 0.038 | [1] 0.022 | barasertib 0.029 | [2] 0.064 | volasertib 0.026 | [3] -0.013 | [4] -0.177 | [5] 0.049 | saracatinib 0.016 | sotrastaurin 0.01

EIF4E2 (UniProt O60573)
inactive: vemurafenib 0.038 | [1] 0.004 | barasertib 0.009 | [2] -0.035 | volasertib -0.008 | [3] 0.031 | [4] -0.062 | [5] -0.017 | saracatinib 0.061 | sotrastaurin 0.007

ELF2 (UniProt Q15723)
inactive: vemurafenib -0.022 | [1] -0.056 | barasertib -0.123 | [2] 0.005 | volasertib 0.042 | [3] 0.031 | [4] 0.086 | [5] -0.078 | saracatinib -0.023 | sotrastaurin -0.004

ELOVL5 isoform 2 (UniProt Q9NYP7)
inactive: vemurafenib -0.079 | [1] -0.028 | barasertib 0.057 | [2] -0.076 | volasertib -0.09 | [3] 0.075 | [4] -0.104 | [5] 0.047 | saracatinib 0.075 | sotrastaurin 0.071

EIF4A1 (UniProt P60842)
inactive: vemurafenib 0.006 | [1] 0.006 | barasertib -0.01 | [2] -0.016 | volasertib -0.027 | [3] -0.033 | [4] -0.045 | [5] -0.003 | saracatinib 0.006 | sotrastaurin -0.008

EIF2B1 (UniProt Q14232)
inactive: vemurafenib -0.002 | [1] 0.005 | barasertib -0.029 | [2] -0.007 | volasertib 0.013 | [3] 0.006 | [4] 0.027 | [5] -0.006 | saracatinib -0.013 | sotrastaurin -0.01

EPM2AIP1 (UniProt Q7L775)
inactive: vemurafenib -0.014 | [1] -0.017 | barasertib 0.008 | [2] -0.076 | volasertib 0.021 | [3] 0.009 | [4] -0.039 | [5] 0.018 | saracatinib -0.004 | sotrastaurin 0.03

Reprinted at random: 2 records from the list, in no set order.
EIF4A1 (UniProt P60842)
inactive: vemurafenib 0.006 | [1] 0.006 | barasertib -0.01 | [2] -0.016 | volasertib -0.027 | [3] -0.033 | [4] -0.045 | [5] -0.003 | saracatinib 0.006 | sotrastaurin -0.008

ELOVL5 isoform 2 (UniProt Q9NYP7)
inactive: vemurafenib -0.079 | [1] -0.028 | barasertib 0.057 | [2] -0.076 | volasertib -0.09 | [3] 0.075 | [4] -0.104 | [5] 0.047 | saracatinib 0.075 | sotrastaurin 0.071

Additional records follow:

EIF5 (UniProt P55010)
inactive: vemurafenib -0.05 | [1] 0.005 | barasertib -0.018 | [2] 0 | volasertib -0.003 | [3] 0.005 | [4] 0.072 | [5] -0.002 | saracatinib 0.005 | sotrastaurin -0.016

EIF6 (UniProt P56537)
inactive: vemurafenib 0.062 | [1] 0.003 | barasertib -0.04 | [2] 0.019 | volasertib 0.001 | [3] -0.044 | [4] -0.056 | [5] 0.054 | saracatinib 0.021 | sotrastaurin -0.008

ERAP1 isoform 2 (UniProt Q9NZ08)
inactive: vemurafenib 0.017 | [1] 0.001 | barasertib -0.006 | [2] 0.001 | volasertib 0.011 | [3] -0.018 | [4] 0.051 | [5] -0.016 | saracatinib 0.01 | sotrastaurin 0.036

ELAC2 (UniProt Q9BQ52)
inactive: vemurafenib 0.018 | [1] 0.027 | barasertib -0.028 | [2] 0.013 | volasertib -0.01 | [3] -0.011 | [4] -0.132 | [5] 0.12 | saracatinib -0.034 | sotrastaurin -0.055

ENPP3 (UniProt O14638)
inactive: vemurafenib 0.037 | [1] 0.019 | barasertib 0.021 | [2] 0.035 | volasertib 0.024 | [3] -0.034 | [4] -0.006 | [5] 0.024 | saracatinib 0.032 | sotrastaurin 0.019

ELAVL1 isoform 2 (UniProt Q15717)
inactive: vemurafenib 0.035 | [1] 0.024 | barasertib -0.013 | [2] -0.03 | volasertib -0.029 | [3] 0.035 | [4] 0.013 | [5] -0.083 | saracatinib -0.001 | sotrastaurin 0.024

EIF3L (UniProt Q9Y262)
inactive: vemurafenib 0.018 | [1] -0.005 | barasertib -0.006 | [2] -0.041 | volasertib -0.023 | [3] -0.004 | [4] -0.031 | [5] -0.016 | saracatinib 0.005 | sotrastaurin 0.005

EPS15L1 isoform 2 (UniProt Q9UBC2)
inactive: vemurafenib 0.003 | [1] 0.02 | barasertib -0.035 | [2] 0.017 | volasertib 0.022 | [3] 0.002 | [4] 0.035 | [5] -0.004 | saracatinib -0.016 | sotrastaurin 0.006

EML2 isoform 3 (UniProt O95834)
inactive: vemurafenib -0.063 | [1] 0.019 | barasertib 0.015 | [2] -0.032 | volasertib -0.013 | [3] 0.006 | [4] 0.128 | [5] -0.035 | saracatinib -0.015 | sotrastaurin 0.032

EPN2 (UniProt O95208)
inactive: vemurafenib 0.019 | [1] 0.027 | barasertib 0.043 | [2] 0.044 | volasertib 0.016 | [3] -0.002 | [5] 0.08 | saracatinib 0.004 | sotrastaurin 0.002
active: [4] -0.417

ENSA isoform 3 (UniProt O43768)
inactive: vemurafenib -0.034 | [1] -0.016 | barasertib -0.052 | [2] 0.049 | volasertib 0.025 | [3] 0.033 | [4] 0.212 | [5] -0.058 | saracatinib -0.021 | sotrastaurin -0.007

ELMO1 (UniProt Q92556)
inactive: vemurafenib 0.101 | [1] 0.081 | barasertib 0.111 | [2] -0.038 | volasertib -0.018 | [3] 0.039 | [4] -0.029 | [5] -0.024 | saracatinib 0.071 | sotrastaurin 0.082

ERI3 (UniProt O43414)
inactive: vemurafenib 0.012 | [1] 0.017 | barasertib -0.013 | [2] 0.035 | volasertib -0.037 | [3] -0.03 | [4] -0.016 | [5] 0.084 | saracatinib -0.009 | sotrastaurin 0.004

EIF2D (UniProt P41214)
inactive: vemurafenib 0.041 | [1] 0.024 | barasertib 0.017 | [2] -0.074 | volasertib -0.052 | [3] 0.001 | [4] -0.02 | [5] -0.071 | saracatinib -0.002 | sotrastaurin 0.026

EMC7 (UniProt Q9NPA0)
inactive: vemurafenib 0.034 | [1] 0.004 | barasertib -0.006 | [2] 0.034 | volasertib 0 | [3] -0.023 | [5] 0.125 | saracatinib 0.005 | sotrastaurin 0.026
active: [4] -0.37
